# Earlier results, collected in US20110113865A1, “USING CARDIAC TROPONIN FOR MONITORING ANTI-ANGIOGENESIS THERAPY” (priority 2008, published 2011).
# The name of at least one read-out is uncertain.
# B1: NT-proBNP: N-terminal pro peptide of proBNP, 76 amino acids (protein, UniProt P16860 27-102, looked up)
# NT-proBNP: HPLGSPGSASDLETSGLQEQRNHLQGKLSELQVEQTSLEPLQESPRPTGVWKSREVATEGIRGHRKMVLYTLRAPR
# modifications: NT-proBNP
# notes: N-terminal pro peptide of proBNP, 76 amino acids
# Conditions: room temperature for several days, or mailed or shipped; cited from earlier work
molecule,measurement,value
B1,recovery on storage of blood samples,without recovery loss
